We go through five compounds from patent US7674881B2, “Convergent synthesis of proteins by kinetically controlled ligation” (The University of Chicago, priority 2005, dated 2010).

Some entries repeat one wording, which the source may state once for all of them.

This data set in a line: Model native chemical ligation reaction testing thiol catalysts. The following applies: for ligation rate at higher thiol concentrations: concentrations well beyond the saturation limit of thiophenol in water; for effect on the rate of NCL: 10 mM thiol catalyst, 6M GdmCl, 200 mM phosphate, 20 mM TCEP, pH 7.0, versus control.

For the compound `Oc1cccc(S)c1` [3-mercaptophenol], the “ligation rate at higher thiol concentrations” value is “dramatically increased ligation rates”.

With `O=C(O)Cc1ccc(S)cc1` [4-mercaptophenylacetic acid], the “ligation rate at higher thiol concentrations” value is “dramatically increased ligation rates”.

Consider `Sc1ncccn1` [2-mercaptopyrimidine], for which the “effect on the rate of NCL” value was “either slowed the reaction rate or were no faster than the control”. For the compound `Sc1ccccn1` [2-mercaptopyridine], the “effect on the rate of NCL” value is recorded as “either slowed the reaction rate or were no faster than the control”. As for `O=[N+]([O-])c1ccc(S)cc1` [4-nitrothiophenol], the “effect on the rate of NCL” value was “either slowed the reaction rate or were no faster than the control”.
